According to PubChem BioAssay AID540303 (National Center for Advancing Translational Sciences (NCATS), 2011):
Screen size: about 330,000 compounds; about 1,000 (0.3%) were called active. This list was built around the results that the source calls inconclusive (neither active nor inactive); the mix of calls is not that of the screen. Calls follow the shape of the dose curve; as a rule, active = well fitted inhibition curve with a large enough effect; inconclusive = small, poorly fitted or top-dose-only effect; inactive = no such curve, though single readings can be large or run the other way; tested in mouse RAW 264.7 cells. Potencies of inconclusive entries are doubtful fits and often do not repeat.

Test: qHTS for Inhibitors of Cell Surface uPA Generation; also: nearly all actives have a fitted effect of over 55% in size
Conditions: cell surface uPA generation assay; series mostly up to 38.3 µM
Summary of the method: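 RAW 264.7, 4000 cells/well, o/n 37 C; cpd 1:5 dilution, up to 38.3 uM final; 24 h 37 C/5% CO2 with reagent; ATP-Lite lum. High ATP = LF entry blocked.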
Potency is read from the fitted curve at half-maximal effect.

Row | SMILES | Potency
1 | Cc1ccc(S(=O)(=O)Nc2cccc3c2O[C@H](CN(C)C(=O)Nc2cccc4ccccc24)[C@H](C)CN([C@H](C)CO)C3=O)cc1 | inconclusive: 12.6 µM [inhibitor, single point]
2 | C=CCN1C(=O)NC(=O)/C(=C/c2ccc(OC)c(CSc3ccccn3)c2)C1=O | inactive
3 | COC(=O)C1=C(c2ccc(-c3ccccc3)c(F)c2)C[C@@H]2CC[C@H]1N2C(=O)NCc1ccc(F)cc1 | inconclusive: 12.6 µM [inhibitor, single point]
4 | Oc1ccc(-[n+]2c(-c3ccccc3)cc(-c3ccccc3)cc2-c2ccccc2)cc1 | inconclusive: 12.6 µM [inhibitor, single point]
5 | O=[N+]([O-])c1ccc(N2CCN(C(=S)NCc3ccc(Cl)cc3)CC2)cc1 | inconclusive: 12.6 µM [inhibitor, single point]
6 | COC(=O)C1=C(c2ccc(F)cc2OCc2ccccc2)C[C@@H]2CC[C@H]1N2C(=O)NCCOc1ccc(OC)cc1 | inconclusive: 7.94 µM [inhibitor, single point]
7 | COC(=O)C1=C(c2ccc3ccccc3c2)C[C@@H]2CC[C@H]1N2C(=O)NCc1ccc(C(F)(F)F)cc1 | active: 11.2 µM
8 | COC(=O)C1=C(c2cc3ccccc3s2)C[C@@H]2CC[C@H]1N2C(=O)N1CCOCC1 | inconclusive: 12.6 µM [inhibitor, single point]
9 | O=C(C1CCN(S(=O)(=O)c2cccnc2)CC1)N1CCN(c2ccc(Cl)cc2)CC1 | inconclusive: 12.6 µM [inhibitor, single point]
10 | CC(O)C1C=CC=CC(=O)OC2CC3OC4C5OC5(C)CCC4(COC(=O)C4OC4(C)C(O)CO1)C2(C)C31CO1 (stereo not drawn) | inactive
11 | CC1CCC(C(C)C)C(OP(=O)(c2ccccc2)C(O)c2ccncc2)C1 (stereo not drawn) | inconclusive: 0.0126 µM [inhibitor, full curve, poor fit]
12 | CCCCC(CC)COCCCN=Cc1c(O)[nH]c(=S)[nH]c1=O (stereo not drawn) | inconclusive: 28.2 µM [inhibitor, single point]
13 | O=c1nc(/C=C/c2ccc(Cl)cc2Cl)cc(C(F)(F)F)[nH]1 | inconclusive: 10 µM [inhibitor, single point]
14 | Cc1cccc(-c2noc(CN(C(=O)C(c3ccccc3)c3ccccc3)C(C)C)n2)c1 | inconclusive: 12.6 µM [inhibitor, single point]
15 | CC1=C(C/C(C)=C/c2ccccc2)/C(=C/CO)[C@@H]2OC(=O)O[C@]2(C)C12CC2 | inconclusive: 10 µM [inhibitor, partial curve, poor fit]
16 | COC(=O)C1=C(c2ccc(F)cc2OCc2ccccc2)C[C@@H]2CC[C@H]1N2C(=O)NCc1ccc(C)cc1 | inconclusive: 31.6 µM [inhibitor, single point]
17 | C[C@H]1CCC/C=C/C2C[C@H](O)CC2[C@H](O)/C=C/C(=O)O1 (stereo partly drawn) | active: 0.316 µM
18 | CC1CC(=O)c2c(cc3c(-c4c(O)cc(O)c5c(O)c6c(cc45)OC(C)CC6=O)c(O)cc(O)c3c2O)O1 (stereo not drawn) | inconclusive: 10 µM [inhibitor, partial curve]
19 | COc1cc2c(cc1OC)-c1c(OC)c(OC)c(OC)c3ccnc(c13)C2=O | inconclusive: 1 µM [inhibitor, full curve, poor fit]
20 | CC[C@]12c3[nH]c4ccc(OC)cc4c3CCN1C(=O)C(CC(=O)NCC13CC4CC(CC(C4)C1)C3)C[C@@H]2C(=O)N1CCN(C(=O)c2ccco2)CC1 (stereo partly drawn) | inconclusive: 28.2 µM [inhibitor, single point]
21 | CC(C)C[C@H]1CNC(=S)N1CC1CCCN1C[C@H](Cc1ccccc1)N1C[C@H](Cc2ccc(O)cc2)N(CC2CCCCCC2)C1=S (stereo partly drawn) | inconclusive: 28.2 µM [inhibitor, single point]
22 | CC(=O)O[C@H]1C(=O)[C@@]2(C)C([C@H](OC(=O)c3ccccc3)[C@]3(O)C[C@H](OC(=O)[C@H](O)[C@@H](NC(=O)Cc4ccccc4)c4ccccc4)C(C)=C1C3(C)C)[C@]1(OC(C)=O)CO[C@@H]1C[C@@H]2O (stereo partly drawn) | inconclusive: 1 µM [inhibitor, full curve, poor fit]
23 | COc1ccc([C@H]2CC(=O)C=C(c3c(OC)cccc3OC)C2)cc1 | active: 2.24 µM
24 | Cc1cc(OC(=O)N(C)C)nc(SCc2c(Cl)cccc2Cl)n1 | inconclusive: 7.94 µM [inhibitor, single point]
25 | CC(C)n1c(/C=C/[C@H](O)C[C@H](O)CC(=O)O)c(-c2ccc(F)cc2)c2ccccc21 | active: 1.41 µM
26 | CC(C)Oc1ccc(C(=O)Nc2ccc(Cl)c(S(=O)(=O)Nc3ccc(Cl)cc3)c2)cc1 | inconclusive: 28.2 µM [inhibitor, single point]
27 | COc1cc(/C=C/[N+](=O)[O-])ccc1O | inconclusive: 11.2 µM [inhibitor, single point]

Two of the compounds above, as comma-separated lines.
Row,SMILES,Potency
14,Cc1cccc(-c2noc(CN(C(=O)C(c3ccccc3)c3ccccc3)C(C)C)n2)c1,"inconclusive: 12.6 µM [inhibitor, single point]"
27,COc1cc(/C=C/[N+](=O)[O-])ccc1O,"inconclusive: 11.2 µM [inhibitor, single point]"

(next part)

Row | SMILES | Potency
28 | N[C@@H](Cc1ccc(N(CCCl)CCCl)cc1)C(=O)O | active: 2.51 µM
29 | CC1(c2ccccc2)CC(C)(C)N2C(=O)C3(C(C#N)=C(N)Oc4cc(O)ccc43)c3cccc1c32 (stereo not drawn) | inconclusive: 12.6 µM [inhibitor, single point]
30 | Cc1ccc2c(c1)NC(=O)[C@@]1(C)[C@@H](c3ccccc3)[C@H]3COc4ccccc4[C@@H]3N1C2=O | inconclusive: 11.2 µM [inhibitor, single point]
31 | CCn1cc(C(=O)N2CCC3(CC2)OCCO3)c(=O)c2cc(S(=O)(=O)N3CCCC3)ccc21 | inactive
32 | Cc1[nH]n(-c2ccccc2)c(=O)c1C(c1ccc([N+](=O)[O-])cc1)c1c(C)[nH]n(-c2ccccc2)c1=O | inconclusive: 1.12 µM [inhibitor, full curve, poor fit]
33 | COc1ccc(CN2Cc3cnnn3-c3ccccc3C2C)cc1 (stereo not drawn) | inconclusive: 28.2 µM [inhibitor, single point]
34 | CCOC(=O)c1ccc(S(=O)(=O)n2c(=O)oc3ccccc32)cc1 | inconclusive: 12.6 µM [inhibitor, single point]
35 | CCOC(=O)[C@]12Cc3cc(Cl)ccc3[C@H]1N(Cc1ccccc1)C(=O)c1ccccc12 | inconclusive: 22.4 µM [inhibitor, partial curve, poor fit]
36 | CN(C)C(=O)CCc1ccc2c3c([nH]c2c1)[C@]1(CCC2CCCC2)[C@@H](C(=O)N2CCOCC2)C[C@H](CC(=O)NCCC2=CCCCC2)C(=O)N1CC3 | inconclusive: 12.6 µM [inhibitor, single point]
37 | CN1CCCC(C(=O)c2ccc(Cl)cc2)C1 (stereo not drawn) | inconclusive: 3.16 µM [inhibitor, partial curve, poor fit]
38 | O=C(COc1ccc2ccccc2c1)N1CCN(Cc2c[nH]c3ccccc23)CC1 | inactive
39 | C/C1=C\[C@@H](C)C/C=C/[C@H]2[C@@H]3O[C@]3(C)[C@@H](C)[C@H]3[C@H](Cc4c[nH]c5ccccc45)NC(=O)[C@]32C(=O)/C=C/C(=O)[C@@H]1O | active: 0.794 µM
40 | C[C@@H]1C[C@H]2[C@@H]3CCC4=CC(=O)C=C[C@]4(C)[C@@]3(Cl)[C@@H](O)C[C@]2(C)[C@@]1(OC(=O)c1ccco1)C(=O)CCl | inconclusive: 8.91 µM [inhibitor, single point]
41 | COC(=O)C1=C(c2ccccc2OCc2ccccc2)C[C@@H]2CC[C@H]1N2C(=O)NCc1ccc(OC)cc1 | inconclusive: 12.6 µM [inhibitor, single point]
42 | O=C(NC1CCCCC1)N1Cc2ccccc2-n2nncc2C1 | inactive
43 | C[C@@H]1CN([C@H](C)CO)C(=O)c2cc(NC(=O)Nc3ccc(C(F)(F)F)cc3)ccc2O[C@H]1CN(C)S(=O)(=O)c1cccs1 | inconclusive: 12.6 µM [inhibitor, single point]
44 | CCOc1cc2c(cc1OCC)-n1cccc1C(c1ccc(OC)c(OC)c1)NC2 (stereo not drawn) | inactive
45 | CC(=O)N1CCCc2cc(S(=O)(=O)N3CCCC(C(=O)N4CCN(c5cccc(Cl)c5)CC4)C3)ccc21 (stereo not drawn) | inconclusive: 12.6 µM [inhibitor, partial curve, poor fit]
46 | COc1cc2c(cc1O)[C@@H]1Cc3ccc(OC)c(O)c3CN1CC2 | active: 4.47 µM
47 | Clc1ccc2c(c1)C(OC1CN3CCC1CC3)c1ccccc1CS2 (stereo not drawn) | inconclusive: 31.6 µM [inhibitor, partial curve, poor fit]
48 | Nc1ncnc2c1ncn2[C@@H]1O[C@H](COP(=O)(O)CP(=O)(O)O)[C@@H](O)[C@H]1O | inconclusive: 5.01 µM [inhibitor, partial curve, poor fit]
49 | COc1cccc2c1C(=O)c1c(O)c3c(c(O)c1C2=O)CC(O)(C(C)=NO)CC3OC1CC(N)C(O)C(C)O1 (stereo not drawn) | inactive
50 | COc1cc(C2c3cc4c(cc3CC3COC(=O)C32)OCO4)cc(OC)c1OC (stereo not drawn) | inconclusive: 0.316 µM [inhibitor, full curve, poor fit]
51 | COc1ccc(S(=O)(=O)Nc2ccc3c(c2)C(=O)N([C@H](C)CO)C[C@@H](C)[C@@H](CN(C)S(=O)(=O)c2ccc(Cl)cc2)O3)cc1 | inconclusive: 10 µM [inhibitor, single point]
52 | CCC(C)C(=O)N[C@@H](c1ccccc1)[C@@H](O)C(=O)O[C@H]1C[C@@]2(O)[C@@H](OC(=O)c3ccccc3)C3[C@](C)(C(=O)[C@H](OC(C)=O)C(=C1C)C2(C)C)[C@@H](O)C[C@H]1OC[C@@]31OC(C)=O (stereo partly drawn) | inconclusive: 0.158 µM [inhibitor, full curve, poor fit]
53 | CNCCc1ccc(O)c(O)c1 | inconclusive: 12.6 µM [inhibitor, single point]

Structures above with an NH in an aromatic ring (7):
Row | SMILES | Potency
12 | CCCCC(CC)COCCCN=Cc1c(O)[nH]c(=S)[nH]c1=O (stereo not drawn) | inconclusive: 28.2 µM [inhibitor, single point]
13 | O=c1nc(/C=C/c2ccc(Cl)cc2Cl)cc(C(F)(F)F)[nH]1 | inconclusive: 10 µM [inhibitor, single point]
20 | CC[C@]12c3[nH]c4ccc(OC)cc4c3CCN1C(=O)C(CC(=O)NCC13CC4CC(CC(C4)C1)C3)C[C@@H]2C(=O)N1CCN(C(=O)c2ccco2)CC1 (stereo partly drawn) | inconclusive: 28.2 µM [inhibitor, single point]
32 | Cc1[nH]n(-c2ccccc2)c(=O)c1C(c1ccc([N+](=O)[O-])cc1)c1c(C)[nH]n(-c2ccccc2)c1=O | inconclusive: 1.12 µM [inhibitor, full curve, poor fit]
36 | CN(C)C(=O)CCc1ccc2c3c([nH]c2c1)[C@]1(CCC2CCCC2)[C@@H](C(=O)N2CCOCC2)C[C@H](CC(=O)NCCC2=CCCCC2)C(=O)N1CC3 | inconclusive: 12.6 µM [inhibitor, single point]
38 | O=C(COc1ccc2ccccc2c1)N1CCN(Cc2c[nH]c3ccccc23)CC1 | inactive
39 | C/C1=C\[C@@H](C)C/C=C/[C@H]2[C@@H]3O[C@]3(C)[C@@H](C)[C@H]3[C@H](Cc4c[nH]c5ccccc45)NC(=O)[C@]32C(=O)/C=C/C(=O)[C@@H]1O | active: 0.794 µM
